In PubChem BioAssay AID192 (DTP/NCI, 2004) one finds survivor count and T/C data, which are given here for 28 molecules.

For this test, the system named is BDF1 mice, B16 melanoma ip, median survival T/C. Nature of the test: NCI In Vivo Anticancer Drug Screen. Data for tumor model B16 Melanoma (intraperitoneal) in B6D2F1 (BDF1) mice. To be noted: T/C endpoint: median survival time, higher T/C = longer survival. The procedure, abridged: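 Values are ratios of treated (T) to vehicle-control (C) measurements of survival or tumor size in tumor-bearing mice.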

Where [1] appears, read: dose: 100.0 mg/kg/injection, schedule: Q01DX009 (ip), vehicle: Klucel (hydroxypropylcellulose) (HPC).
Setting [2] is: dose: 6.25 mg/kg/injection, schedule: Q01DX009 (ip), vehicle: saline.
Setting [3] is: dose: 50.0 mg/kg/injection, schedule: Q01DX009 (ip), vehicle: saline.
Where [4] appears, read: dose: 12.5 mg/kg/injection, schedule: Q01DX009 (ip), vehicle: saline with Tween-80.
Where [5] appears, read: dose: 25.0 mg/kg/injection, schedule: Q01DX009 (ip), vehicle: saline with Tween-80.
The mark [6] stands for this setting: dose: 50.0 mg/kg/injection, schedule: Q01DX009 (ip), vehicle: saline with Tween-80.
Setting [7] is: dose: 100.0 mg/kg/injection, schedule: Q01DX009 (ip), vehicle: saline with Tween-80.
[8] abbreviates: dose: 200.0 mg/kg/injection, schedule: Q01DX009 (ip), vehicle: saline with Tween-80.
Setting [9] is: dose: 400.0 mg/kg/injection, schedule: Q01DX009 (ip), vehicle: saline with Tween-80.
Where [10] appears, read: dose: 200.0 mg/kg/injection, schedule: Q01DX009 (ip), vehicle: Klucel (hydroxypropylcellulose) (HPC).
Where [11] appears, read: dose: 100.0 mg/kg/injection, schedule: Q01DX009 (ip), vehicle: saline.
[12] abbreviates: dose: 400.0 mg/kg/injection, schedule: Q01DX009 (ip), vehicle: Klucel (hydroxypropylcellulose) (HPC).
[13] abbreviates: dose: 50.0 mg/kg/injection, schedule: Q01DX009 (ip), vehicle: Klucel (hydroxypropylcellulose) (HPC).
Setting [14] is: dose: 100.0 mg/kg/injection, schedule: Q01DX009 (ip), vehicle: saline sonified.

The list does not hold the whole screen: it is rich in T/C values a quarter to a half above the control, in often repeated tests (any T/C) and in doses without a T/C. Further doses and runs are listed elsewhere. T/C gives the treated animals as a percentage of the vehicle group. Some entries give survivors of the animals treated and no T/C: the source holds a T/C of zero for them, seemingly a mark for toxic or unscored doses. Some doses without a T/C left all or most animals alive at the check, yet need not have been tolerated: the source hardly ever lists a survival T/C far under the control, and the zero likely stands for such cases as well. Counts of survivors are from the toxicity check (mostly the fifth day) where no day follows; animals may have died later. Schedules are NCI's codes, read here as Q, the interval in days (D) or hours (H), X, the number of doses. Some entries hold several experiments; the values are given in rising order. Where survival is the endpoint, the PubChem record calls one and a half times the control and up active, and a quarter to a half above the control has no call in these data; cut-offs in other NCI protocols can differ.

As for `CCOc1c(Br)cc(Br)cc1/C=N/NS(=O)(=O)c1ccc(C)cc1`, the survivor count is recorded as 10 of 10 (dose: 75.0 mg/kg/injection, schedule: Q04DX003 (ip), vehicle: Klucel (hydroxypropylcellulose) (HPC)); 10 of 10 under setting [1]; 10 of 10 (dose: 115.0 mg/kg/injection, schedule: Q04DX003 (ip), vehicle: Klucel (hydroxypropylcellulose) (HPC)); 9 of 10 (dose: 255.0 mg/kg/injection, schedule: Q04DX003 (ip), vehicle: Klucel (hydroxypropylcellulose) (HPC)); 10 of 10 (dose: 385.0 mg/kg/injection, schedule: Q04DX003 (ip), vehicle: Klucel (hydroxypropylcellulose) (HPC)).
In the case of `O=C(OCCOCCN1CCCCC1)N1c2ccccc2Sc2cccnc21`, the survivor count is, setting by setting: under setting [2], 10 of 10; under setting [3], 7 of 10.
As for `COC(=O)CCC1=C(C)c2cc3[n-]c(cc4nc(cc5[n-]c(cc1n2)c(CCC(=O)OC)c5C)C=C4C)cc3C.[Ni+2]`, the survivor count is, setting by setting: under setting [4], 10 of 10; under setting [5], 10 of 10; under setting [6], 10 of 10; under setting [7], 10 of 10; under setting [8], 8 of 10; under setting [9], 10 of 10.
Turning to `O=Nc1c(O)ccc2ccccc12`, under setting [1], the survivor count is given as 0 of 10.
`CC(=O)OC1CCC2(C)C(CCC3C2C(=O)C(OC(C)=O)C2(C)C3CC3OC4(CCC(C)CO4)C(C)C32)C1` (stereo not given): the survivor count reads like this: under setting [4], 10 of 10; under setting [5], 10 of 10; under setting [6], 10 of 10; under setting [7], 10 of 10.
For the molecule `[Cl][Ge]([Cl])([c]1ccccc1)[c]1ccccc1`, under setting [1], the survivor count is recorded as 6 of 10.
`C[C@]12CCC(=O)C=C1CC[C@@H]1[C@@H]2[C@@H](O)C[C@@]2(C)[C@H]1CC[C@]2(O)C(=O)CO`: the survivor count is recorded as 10 of 10 (dose: 320.0 mg/kg/injection, schedule: Q02DX009 (ip), vehicle: Klucel (hydroxypropylcellulose) (HPC)) and 9 of 10 (dose: 640.0 mg/kg/injection, schedule: Q02DX009 (ip), vehicle: Klucel (hydroxypropylcellulose) (HPC)).
For `CNC(Cc1ccccc1)c1ccc(OC)cc1` (stereo not given), the survivor count under setting [10] is 7 of 10.
Turning to `CC[CH2][Pb]([CH2]CC)([CH2]CC)[O]C(=O)C(Cl)(Cl)Cl`, the survivor count was 10 of 10 (dose: 8.0 mg/kg/injection, schedule: Q01DX009 (ip), vehicle: Klucel (hydroxypropylcellulose) (HPC)) and 4 of 10 (dose: 16.0 mg/kg/injection, schedule: Q01DX009 (ip), vehicle: Klucel (hydroxypropylcellulose) (HPC)).
On to `Cc1cn(C2CC3[O][Sn]([c]4ccccc4)([c]4ccccc4)[O]CC3O2)c(=O)[nH]c1=O` (stereo not given), for which the T/C is, setting by setting: under setting [2], 131 % of control; under setting [3], 131 % of control; under setting [11], 133 % of control. Also, the survivor count under setting [11] is listed as 10 of 10; the survivor count (dose: 200.0 mg/kg/injection, schedule: Q01DX009 (ip), vehicle: saline) was 5 of 10 and 10 of 10.
Take `Cc1c(Cl)cccc1NC(=O)c1ccccc1C(=O)O`: the survivor count under setting [12] is reported as 9 of 10.
On to `CC(C)(C)OC(=O)NC(COCc1ccccc1)C(=O)O` (stereo not given), for which the survivor count reads like this: under setting [8], 10 of 10; under setting [9], 10 of 10.
With `CCOc1ccc(Br)cc1/C=N\N=C\c1cc(Br)ccc1OCC`, the survivor count reads like this: under setting [1], 10 of 10; under setting [7], 6 of 6; under setting [10], 10 of 10; under setting [8], 6 of 6; under setting [12], 9 of 10; under setting [9], 5 of 6.
As for `CC1=CCC=C(CNc2ncnc3nc[nH]c23)C1`, the survivor count is, setting by setting: under setting [4], 10 of 10; under setting [5], 9 of 10.
Regarding `CCC[CH2][Sn]1([CH2]CCC)[S]CC[N]1S(=O)(=O)c1ccc(C)cc1`, the survivor count under setting [5] is recorded as 9 of 10 and the survivor count under setting [6] is reported as 0 of 10.
Turning to `CC(=O)OC1OC(=O)C(C)(C(C)=O)C1C` (stereo not given), the survivor count by setting is: (dose: 20.0 mg/kg/injection, schedule: Q01DX009 (ip), vehicle: distilled water + alcohol) 10 of 10; (dose: 40.0 mg/kg/injection, schedule: Q01DX009 (ip), vehicle: distilled water + alcohol) 5 of 10.
Regarding `CCNC(C)(C)C(SSSC(c1ccc(Cl)cc1)C(C)(C)NCC)c1ccc(Cl)cc1` (stereo not given), the survivor count is 10 of 10 under setting [13] and 10 of 10 under setting [1].
Consider `CCCCCCCC(=O)CC(C)C`, for which the survivor count under setting [12] is on record as 9 of 10.
In the case of `O=c1cc(CCl)[nH]nc1CCl`, the T/C reads like this: (dose: 6.0 mg/kg/injection, schedule: Q01DX009 (ip), vehicle: saline with Tween-80) 131 % of control; (dose: 6.25 mg/kg/injection, schedule: Q01DX009 (ip), vehicle: saline with Tween-80) 130 % of control; (dose: 12.0 mg/kg/injection, schedule: Q01DX009 (ip), vehicle: saline with Tween-80) 128 % of control. Also, the survivor count reads like this: (dose: 24.0 mg/kg/injection, schedule: Q01DX009 (ip), vehicle: saline with Tween-80) 10 of 10; under setting [5], 9 of 10; under setting [6], 6 of 10; under setting [7], 0 of 10.
As to `Cc1cc(=O)n(C)c2ccccc12`, the survivor count runs as follows: under setting [13], 10 of 10; under setting [10], 10 of 10.
In the case of `Cc1c2c(cc3c1[nH]c1ccccc13)C(c1ccc(Cl)cc1)=NCC2`, the survivor count runs as follows: under setting [4], 6 of 6; under setting [5], 6 of 6; under setting [6], 6 of 6; under setting [14], 6 of 6; (dose: 200.0 mg/kg/injection, schedule: Q01DX009 (ip), vehicle: saline sonified) 6 of 6; (dose: 400.0 mg/kg/injection, schedule: Q01DX009 (ip), vehicle: saline sonified) 6 of 6.
As to `COc1ccc(N=Cc2ccc(C=Nc3ccc(OC)cc3)cc2)cc1`, under setting [1], the survivor count is on record as 10 of 10.
Turning to `N=c1c2ncn(Cc3cccc(C(F)(F)F)c3)c2ncn1O`, the survivor count (dose: 3.12 mg/kg/injection, schedule: Q01DX009 (ip), vehicle: Klucel (hydroxypropylcellulose) (HPC)) is listed as 7 of 10.
`CC(C)(C)C1CC(C(F)(F)F)(C(F)(F)F)OS(=O)O1` (stereo not given): the survivor count is listed as 10 of 10 (dose: 12.5 mg/kg/injection, schedule: Q04DX003 (ip), vehicle: saline with Tween-80); 10 of 10 (dose: 25.0 mg/kg/injection, schedule: Q04DX003 (ip), vehicle: saline with Tween-80); 10 of 10 (dose: 50.0 mg/kg/injection, schedule: Q04DX003 (ip), vehicle: saline with Tween-80).
For `CC[N](CC)[Ge]([CH2]C)[CH2]C.CC[N](CC)[Ge]([CH2]C)[CH2]C`, the survivor count (dose: 3.12 mg/kg/injection, schedule: Q01DX009 (ip), vehicle: saline) is recorded as 10 of 10 and the survivor count under setting [11] is 0 of 10.
As for `COc1ccc(Nc2ccnc3cc(Cl)ccc23)cc1CN(CCCl)CCCl`, the survivor count (dose: 5.0 mg/kg/injection, schedule: Q01DX009 (ip), vehicle: Klucel (hydroxypropylcellulose) (HPC)) is 10 of 10 and the survivor count (dose: 10.0 mg/kg/injection, schedule: Q01DX009 (ip), vehicle: Klucel (hydroxypropylcellulose) (HPC)) is recorded as 1 of 10.
Take `O=CC1CO1` (stereo not given): under setting [14], the survivor count is given as 4 of 6.
In the case of `CC(C)CC(NC(=O)C(N)C(C)C)C(=O)NC(CCCCN)C(=O)Nc1ccc(N(CCCl)CCCl)cc1` (stereo not given), the T/C (dose: 2.98 mg/kg/injection, schedule: Q01DX009 (ip), vehicle: saline) was 134 and 140 % of control. Further, the survivor count (dose: 11.9 mg/kg/injection, schedule: Q01DX009 (ip), vehicle: saline) is given as 10 of 10 and the survivor count (dose: 23.8 mg/kg/injection, schedule: Q01DX009 (ip), vehicle: saline) was 10 of 10.
